From PubChem BioAssay record AID1159506 (NCATS, 2015).

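Genome-wide siRNA knockdown in TC32 Ewing sarcoma cells, comparing luciferase light from an NR0B1-promoter reporter with a CMV-promoter reporter 48 hours after transfection. Each siRNA was applied at 20 nM. A z-score of the log NR0B1-over-CMV signal, less the median of siRNAs with the same seed; more negative means a stronger specific loss of the NR0B1 reporter.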

The strongest results of the screen are mostly left out here. Sequences are the guide (antisense) strand, without overhang.

- UACUGAACCACCGUGCAGU against SLC27A1 : seed-corrected z-score 0.7899
- UAUCAAAUAGUUCAAAAGC against CETN3 : seed-corrected z-score 0.9996
- UAUCGUUGGAUCUUGCUGU against LINC01551 : seed-corrected z-score -0.8584
- UCUGGGUACAAGAUCCUCC against PNKP : seed-corrected z-score 0.3033
- AACCUCUCCAGAUACAGCG against B4GALNT4 : seed-corrected z-score -0.04757
- UCCAGGAAAGUGUUCAGUG against LINC01545 : seed-corrected z-score -0.4656
- UUGCUCAAAACAGACAAGG against CHD1L : seed-corrected z-score 0.06124
- UAGCGGUCAACAGUGAUAG against GPR12 : seed-corrected z-score -0.9316
- UUUUGUGAUCAGAGAAUUC against KIAA1191 : seed-corrected z-score -0.3196
- AAACAGACCAAAUUGAGGG against SPINK2 : seed-corrected z-score -0.2304
- UCCUUAUGUGCAGUUAUCC against TGS1 : seed-corrected z-score -0.8008
- UCUCGAACAGUCACUGAGC against TP53RK : seed-corrected z-score -0.2998
- AAUGUAUCCAUCCUGGUCG against RASGRP1 : seed-corrected z-score -0.009818
- UAAGUGGUGACGAUUCGCU against DNM2 : seed-corrected z-score 1.01
- UGCUGUUCCAGCAGUGCCU against SH2D6 : seed-corrected z-score 0.03676
- AUUCGAAAUACAGACAAGC against ANO4 : seed-corrected z-score -0.3085
- UCAGAGAGAAUGUUCCAGC against OR14K1 : seed-corrected z-score -0.8876
- UUUAAAAACAGGUAAACUG against PTBP1 : seed-corrected z-score -0.547
- AUACAUCUCGGCAAACUGC against EEF2 : seed-corrected z-score -0.3928
- UAUUUGCUGAGGGCUCUGC against TCOF1 : seed-corrected z-score 1.011
- UACAGGACCACAUGCUUGA against AIP : seed-corrected z-score -1.376
- UCAUAGUACACCUCCACCC against LOXL2 : seed-corrected z-score -0.5751
- UAUGGUGCUGCGUAUGUCC against ZMAT1 : seed-corrected z-score 0.4781
- UGUACAAUCAUCACGAGGG against CERS3 : seed-corrected z-score -0.00517
- UCUACUUGAACUGACCUGC against SLC17A1 : seed-corrected z-score 0.1236
- UUGUCAUCAAUGAACGGAC against SEC14L1 : seed-corrected z-score 1.598
- UCUGCGUCCUCACAUAUCC against HLA-DOB : seed-corrected z-score 0.4359
- UCCAUGUGAACCUAGCUUC against CALHM1 : seed-corrected z-score 0.7747
- UUCCUCGUCUGAUAUGAUC against C16orf87 : seed-corrected z-score -0.822
- UCAUGAAUAACUCCGUUCA against GLT6D1 : seed-corrected z-score 0.6216
- UAAGUCAGCAAUAACUUGG against CYP27C1 : seed-corrected z-score -0.3043
- UAAAUGUUCUGUACCACAC against GUCA1C : seed-corrected z-score -0.5265
- UUUGAAAUUGCUCUACUGG against LOC149351 : seed-corrected z-score 0.01303
- UCUCCUUUAACGACGACAG against LGALS8 : seed-corrected z-score 0.2366
- ACGAUAAUCAGUUAACUUC against PRDX4 : seed-corrected z-score -0.2129
- UCUUCUUAAUGGGACAGGC against AIDA : seed-corrected z-score -0.1189
- UAAGUAGUGUAGGGUCUUC against VASH2 : seed-corrected z-score 0.1673